Measurements taken from PubChem BioAssay AID330 (DTP/NCI, 2004).
The list is a part of this screen's results and no random one: it is rich in T/C values a quarter to a half above the control, in often repeated tests (any T/C) and in doses without a T/C. Further doses and runs are listed elsewhere. T/C: endpoint of the treated group in % of that of the vehicle group. Some entries give survivors of the animals treated and no T/C: the source files T/C as zero there, which appears to mark a toxic dose or a test without result, not a measured value. Some doses without a T/C left all or most animals alive at the check, yet need not have been tolerated: the source hardly ever lists a survival T/C far under the control, and the zero likely stands for such cases as well. Survivors were counted at the toxicity check, usually on the fifth day, unless a day is given; later deaths do not show. Schedules are NCI's codes, taken here to give the interval after Q, in days (D) or hours (H), and the number of doses after X. Where survival is the endpoint, this PubChem deposit counts one and a half times the control or more as active, and values a quarter to a half above the control carry no call in these data; other NCI protocols may use other cut-offs. Some entries were tested several times; the results are listed from low to high. Some T/C values are followed by the survivors on the day toxicity was checked, most often the fifth; where none is given, no animal had died by that day.

Test system: P388 leukemia ip, CD2F1 mice, survival T/C
Assay: NCI In Vivo Anticancer Drug Screen. Data for tumor model P388 Leukemia (intraperitoneal) in CD2F1 (CDF1) mice
Conditions: T/C endpoint: median survival time, higher T/C = longer survival
[1] = dose: 120.0 mg/kg/injection, schedule: Q01DX005 (ip), vehicle: saline
[2] = dose: 240.0 mg/kg/injection, schedule: Q01DX005 (ip), vehicle: saline
[3] = dose: 400.0 mg/kg/injection, schedule: Q04DX003 (ip), vehicle: saline with Tween-80

For `NC(=O)c1ncnc2nc[nH]c12`, the T/C (dose: 3.13 mg/kg/injection, schedule: Q01DX005 (ip), vehicle: saline with Tween-80) was 128 % of control, the T/C (dose: 6.25 mg/kg/injection, schedule: Q01DX005 (ip), vehicle: saline with Tween-80, evaluated on day 27) was 96 % of control and the T/C (dose: 6.25 mg/kg/injection, schedule: Q01DX005 (ip), vehicle: saline with Tween-80, evaluated on day 30) was 101, 107, 109 % of control. For the same molecule, the survivor count (dose: 12.5 mg/kg/injection, schedule: Q01DX005 (ip), vehicle: saline with Tween-80) was 6 of 6, the survivor count (dose: 25.0 mg/kg/injection, schedule: Q01DX005 (ip), vehicle: saline with Tween-80) was 0 of 6 and the survivor count (dose: 50.0 mg/kg/injection, schedule: Q01DX005 (ip), vehicle: saline with Tween-80) was 3 of 5. The survivor count (dose: 100.0 mg/kg/injection, schedule: Q01DX005 (ip), vehicle: saline with Tween-80) was 2 of 5 and the survivor count (dose: 200.0 mg/kg/injection, schedule: Q01DX005 (ip), vehicle: saline with Tween-80) was 1 of 5.
`CN(C)c1cc[n+](C=O)cc1` was tested, and the survivor count (dose: 60.0 mg/kg/injection, schedule: Q01DX005 (ip), vehicle: saline) was 0 of 6, the survivor count [1] was 0 of 6 and the survivor count [2] was 0 of 6.
`Cc1ccc(C)c(C(=O)CCN(C)C)c1` was tested, and the survivor count [1] was 0 of 6 and the survivor count [2] was 0 of 6.
For `O=C([O-])c1cc(Br)cc(Br)c1[OH2+].O=C([O-])c1cc(Br)cc(Br)c1[OH2+].[Mn+2]`, the T/C (dose: 240.0 mg/kg/injection, schedule: Q01DX005 (ip), vehicle: saline with Tween-80) was 126 % of control.
With `COc1cc(/C=C/c2ccc3ccccc3n2)cc(OC)c1OC` the survivor count (dose: 400.0 mg/kg/injection, schedule: Q01DX009 (ip), vehicle: saline with Tween-80) was 6 of 6.
For `CC1(C)N=C(N)N=C(N)N1c1cccc(CC(=O)Nc2ccc(S(=O)(=O)F)cc2)c1`, the T/C (dose: 12.5 mg/kg/injection, schedule: Q01DX009 (ip), vehicle: saline with Tween-80) was 130 % of control, the T/C (dose: 25.0 mg/kg/injection, schedule: Q01DX009 (ip), vehicle: saline with Tween-80) was 145 % of control and the T/C (dose: 50.0 mg/kg/injection, schedule: Q01DX009 (ip), vehicle: saline with Tween-80) was 140 % of control [5 of 6 alive]. The T/C (dose: 66.0 mg/kg/injection, schedule: Q01DX009 (ip), vehicle: saline with Tween-80) was 136 % of control, the T/C (dose: 100.0 mg/kg/injection, schedule: Q01DX009 (ip), vehicle: saline with Tween-80) was 145 % of control and the T/C (dose: 100.0 mg/kg/injection, schedule: Q04DX003 (ip), vehicle: saline with Tween-80) was 127 % of control. The T/C (dose: 150.0 mg/kg/injection, schedule: Q01DX009 (ip), vehicle: saline with Tween-80) was 145 % of control, the survivor count (dose: 264.0 mg/kg/injection, schedule: Q04DX003 (ip), vehicle: saline with Tween-80) was 1 of 6 and the T/C [3] was 131 % of control. The survivor count [3] was 1 of 6 and the survivor count (dose: 600.0 mg/kg/injection, schedule: Q04DX003 (ip), vehicle: saline with Tween-80) was 0 of 6.
For `O=C(Nc1cccc2nsnc12)c1ccc(C(=O)Nc2cccc3nsnc23)cc1`, the survivor count (dose: 3.75 mg/kg/injection, schedule: Q01DX005 (ip), vehicle: Klucel (hydroxypropylcellulose) (HPC)) was 6 of 6, the survivor count (dose: 7.5 mg/kg/injection, schedule: Q01DX005 (ip), vehicle: Klucel (hydroxypropylcellulose) (HPC)) was 6 of 6 and the survivor count (dose: 15.0 mg/kg/injection, schedule: Q01DX005 (ip), vehicle: Klucel (hydroxypropylcellulose) (HPC)) was 6 of 6. For the same molecule, the survivor count (dose: 60.0 mg/kg/injection, schedule: Q01DX005 (ip), vehicle: Klucel (hydroxypropylcellulose) (HPC)) was 6 of 6 and the survivor count (dose: 120.0 mg/kg/injection, schedule: Q01DX005 (ip), vehicle: Klucel (hydroxypropylcellulose) (HPC)) was 6 of 6.
